Source: article PMC5696377
Results are given in words; binding and its absence hold for the method and conditions named. In cells and extracts the contact can be indirect. Some results given as binding are weak or reduced against the parent protein; the word gives no strength.

Amino acid sequences for entries named in this document (tags omitted). A change or cut given only in a name is not applied to a line headed by its entry.
UniProt Q60680: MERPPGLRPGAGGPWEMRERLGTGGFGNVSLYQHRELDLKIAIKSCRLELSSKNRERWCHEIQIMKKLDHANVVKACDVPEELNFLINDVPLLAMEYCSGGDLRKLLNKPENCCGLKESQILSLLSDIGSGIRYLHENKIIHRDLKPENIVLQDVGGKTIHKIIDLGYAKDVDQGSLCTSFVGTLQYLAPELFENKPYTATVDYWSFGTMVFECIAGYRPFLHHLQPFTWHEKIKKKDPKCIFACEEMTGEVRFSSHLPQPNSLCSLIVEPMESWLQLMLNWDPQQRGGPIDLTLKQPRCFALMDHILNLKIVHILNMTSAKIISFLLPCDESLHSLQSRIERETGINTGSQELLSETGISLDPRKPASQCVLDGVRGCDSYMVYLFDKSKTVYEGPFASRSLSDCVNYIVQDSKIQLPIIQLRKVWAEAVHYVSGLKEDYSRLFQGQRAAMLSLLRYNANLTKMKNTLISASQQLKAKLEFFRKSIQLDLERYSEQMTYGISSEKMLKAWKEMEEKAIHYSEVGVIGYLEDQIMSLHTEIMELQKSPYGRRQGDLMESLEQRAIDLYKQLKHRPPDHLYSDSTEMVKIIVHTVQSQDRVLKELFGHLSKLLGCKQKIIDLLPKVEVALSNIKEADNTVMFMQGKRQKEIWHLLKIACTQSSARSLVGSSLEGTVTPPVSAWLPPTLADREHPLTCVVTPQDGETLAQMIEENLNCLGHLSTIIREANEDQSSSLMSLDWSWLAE
UniProt Q9Y6K9: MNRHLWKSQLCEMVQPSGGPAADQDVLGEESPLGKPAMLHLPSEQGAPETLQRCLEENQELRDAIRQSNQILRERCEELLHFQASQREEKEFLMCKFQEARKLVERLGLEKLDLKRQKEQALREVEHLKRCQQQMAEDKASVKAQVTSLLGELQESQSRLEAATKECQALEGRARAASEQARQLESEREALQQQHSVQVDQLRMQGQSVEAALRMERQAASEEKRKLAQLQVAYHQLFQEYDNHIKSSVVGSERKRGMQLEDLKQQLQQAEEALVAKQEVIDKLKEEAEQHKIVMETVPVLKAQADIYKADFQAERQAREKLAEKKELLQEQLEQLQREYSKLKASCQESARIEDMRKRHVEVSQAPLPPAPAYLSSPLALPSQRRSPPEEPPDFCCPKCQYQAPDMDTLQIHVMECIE
UniProt O15111: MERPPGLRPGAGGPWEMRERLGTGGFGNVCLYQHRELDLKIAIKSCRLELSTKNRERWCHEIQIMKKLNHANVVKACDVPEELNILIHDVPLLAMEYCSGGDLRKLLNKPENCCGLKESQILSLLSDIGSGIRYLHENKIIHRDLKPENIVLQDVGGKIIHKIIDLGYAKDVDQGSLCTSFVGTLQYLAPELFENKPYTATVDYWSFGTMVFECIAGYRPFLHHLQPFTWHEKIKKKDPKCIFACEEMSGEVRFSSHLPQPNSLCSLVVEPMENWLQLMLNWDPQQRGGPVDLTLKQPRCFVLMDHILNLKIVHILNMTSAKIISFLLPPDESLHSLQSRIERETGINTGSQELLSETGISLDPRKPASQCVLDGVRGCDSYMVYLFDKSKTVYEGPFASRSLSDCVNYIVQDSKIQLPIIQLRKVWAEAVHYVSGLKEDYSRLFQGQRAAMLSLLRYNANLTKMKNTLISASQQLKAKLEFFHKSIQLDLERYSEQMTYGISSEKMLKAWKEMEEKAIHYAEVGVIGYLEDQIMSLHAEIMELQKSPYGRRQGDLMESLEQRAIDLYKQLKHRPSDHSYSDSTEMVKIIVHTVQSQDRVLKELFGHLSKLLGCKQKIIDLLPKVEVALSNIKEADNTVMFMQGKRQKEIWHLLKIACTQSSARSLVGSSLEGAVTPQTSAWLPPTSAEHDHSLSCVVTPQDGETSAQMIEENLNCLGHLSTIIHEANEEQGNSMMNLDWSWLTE
UniProt Q9Z1E3: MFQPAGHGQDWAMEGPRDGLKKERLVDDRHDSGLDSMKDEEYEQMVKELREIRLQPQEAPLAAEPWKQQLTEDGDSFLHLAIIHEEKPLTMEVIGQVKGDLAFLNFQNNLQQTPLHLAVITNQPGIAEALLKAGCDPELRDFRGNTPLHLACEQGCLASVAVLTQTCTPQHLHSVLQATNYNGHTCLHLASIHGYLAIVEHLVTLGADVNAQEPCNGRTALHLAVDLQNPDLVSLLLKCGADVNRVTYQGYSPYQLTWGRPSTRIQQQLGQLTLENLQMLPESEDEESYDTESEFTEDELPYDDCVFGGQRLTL
UniProt P25963: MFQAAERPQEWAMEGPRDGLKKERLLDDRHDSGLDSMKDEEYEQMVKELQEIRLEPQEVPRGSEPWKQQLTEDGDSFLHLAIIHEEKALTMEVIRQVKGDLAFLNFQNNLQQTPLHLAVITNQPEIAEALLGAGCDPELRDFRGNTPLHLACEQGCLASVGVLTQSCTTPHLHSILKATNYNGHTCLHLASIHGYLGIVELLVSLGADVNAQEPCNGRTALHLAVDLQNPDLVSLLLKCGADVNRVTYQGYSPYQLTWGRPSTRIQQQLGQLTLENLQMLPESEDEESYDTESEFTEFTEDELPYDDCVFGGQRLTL

How the values were obtained:
[1] = target: T1, Morgana (NIH-3T3) (mouse (endogenous in NIH-3T3)) (UniProt Q9D1P4); assay: co-IP; immunoprecipitation from the non-tumorigenic cell lines HEK293 and NIH-3T3 (Supplementary Fig. 6a, b)
T1 sequence: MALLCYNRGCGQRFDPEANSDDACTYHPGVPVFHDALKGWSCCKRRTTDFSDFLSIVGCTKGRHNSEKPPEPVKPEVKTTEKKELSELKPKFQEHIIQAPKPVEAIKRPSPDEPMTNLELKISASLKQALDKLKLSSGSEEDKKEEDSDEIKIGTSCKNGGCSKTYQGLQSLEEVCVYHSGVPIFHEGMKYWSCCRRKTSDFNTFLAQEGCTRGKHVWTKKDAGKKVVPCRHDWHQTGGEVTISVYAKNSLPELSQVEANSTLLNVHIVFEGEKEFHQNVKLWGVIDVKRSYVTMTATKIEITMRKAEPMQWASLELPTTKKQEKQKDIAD

[2] = target: T2, Morgana/chp-1 (CHORDC1 gene product) (human (endogenous in MDA-MB-231, BT549)) (UniProt Q9UHD1); assay: co-IP; immunoprecipitation of Morgana from MDA-MB-231 or BT549 extracts (lysis buffer 25 mM Tris-HCl pH 8, 1 mM MgCl2), antibody overnight at 4 °C, protein G Sepharose, 10 washes, immunoblot; also done in MDA-MB-231 silenced for Hsp90 or cdc37
T2 sequence: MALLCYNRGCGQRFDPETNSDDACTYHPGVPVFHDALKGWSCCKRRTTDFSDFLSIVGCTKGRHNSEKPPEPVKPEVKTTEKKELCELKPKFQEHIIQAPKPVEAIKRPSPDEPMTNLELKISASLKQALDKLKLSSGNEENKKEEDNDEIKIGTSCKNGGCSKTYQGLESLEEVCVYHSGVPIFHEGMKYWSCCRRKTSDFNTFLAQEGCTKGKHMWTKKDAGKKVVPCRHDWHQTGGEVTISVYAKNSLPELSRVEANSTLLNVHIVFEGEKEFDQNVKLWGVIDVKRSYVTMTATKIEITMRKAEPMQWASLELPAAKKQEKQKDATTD

[3] = target: T2, Morgana/chp-1 (CHORDC1 gene product) (human (endogenous in MDA-MB-231, BT549)); assay: co-IP; immunoprecipitation from the non-tumorigenic cell lines HEK293 and NIH-3T3 (Supplementary Fig. 6a, b)

Substance | binding [1] | binding [2] | binding [3]
IKK complex (NIH-3T3) (from UniProt Q60680 1-745; O88351 1-757; O88522 1-412) | binds | – | –
IKKγ/NEMO (from UniProt Q9Y6K9 1-419) | – | binds | –
IKK complex (HEK293) (from UniProt O15111 1-745; O14920 1-756; Q9Y6K9 1-419) | – | – | binds
IκBα (NIH-3T3) (from UniProt Q9Z1E3 1-314) | binds | – | –
IκBα (from UniProt P25963 1-317) | – | binds | binds
